No constants are given. Whether binding was seen depends on the method and setting. Some results given as binding are weak or reduced against the parent protein; the word gives no strength.

Protein sequences, listed by entry. Tags and fused reporters are not part of them. Lines headed by an entry give the natural chain unless they say otherwise; changes in a name come on top. Chains listed by the source or under a name are the forms on record and can include a tag or linker.
recombinant Macaca fascicularis PD-L1-Fc (90251-CO2H, Sino Biological Inc.) (G7PSE7, form named): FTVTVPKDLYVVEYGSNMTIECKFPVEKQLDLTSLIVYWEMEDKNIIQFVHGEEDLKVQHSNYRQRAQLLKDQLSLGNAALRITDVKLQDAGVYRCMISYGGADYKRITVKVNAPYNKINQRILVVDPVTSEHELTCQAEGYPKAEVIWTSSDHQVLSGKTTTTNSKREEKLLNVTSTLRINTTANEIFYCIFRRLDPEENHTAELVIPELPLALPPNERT

In the test the target is recombinant Macaca fascicularis PD-L1-Fc (90251-CO2H, Sino Biological Inc.) (Macaca fascicularis) (UniProt G7PSE7). In words: BLI (Octet RED384) competition: 75 nM Macaca fascicularis PD-L1-Fc pre-mixed with titrated antibody, binding to biotin-labelled PD-1-Fc on an SA sensor. In general terms: Biolayer interferometry detects binding as a change in optical thickness at a sensor tip.

B1: anti-PD-L1 fully human antibody YN-002 (antibody, human IgG1, lambda, V domains shown)
VH: QVQLVQSGAEVRKPGSSVKVSCKASGGTFSSYAISWVRQAPGQGLEWMGRIIPILGIANYAQKFQGRVTITADKSTSTAYMELSSLRSEDTAVYYCARTMDGYSYGNFDYWGQGTLVTVSS
VL: QSALTQPASVSGSPGQSITISCTGTSSDVGGYNYVSWYQQHPGKAPKLLIYGNSNRPSGVPDRFSGSKSGTSASLAITGLQAEDEADYYCQSYDSSLSGSVFGGGTKLTVLG
As for B1, the binding entry was “binds”.

B2: anti-PD-L1 fully human antibody YN-003 (antibody, human IgG1, lambda, V domains shown)
VH: QVQLVQSGAEVKKPGSSVKVSCKASGGTFSSYAISWVRQAPGQGLEWMGRIIPILGIANYAQKFQGRVTITADKSTSTAYMELSSLRSEDTAVYYCARTMDGYSYGNFDYWGQGTLVTVSS
VL: QSALTQPASVSGSPGQSITISCTGTSSDVGGYNYVSWYQQHPGKAPKLMIYGNSNRPSGVSNRFSGSKSGNTASLTISGLQAEDEADYYCQSYDSSLSGSVFGGGTKLTVLG
For B2, the binding entry is “binds”.

Source of the values: patent US20210261677A1.
